Laboratory results reported in PubChem BioAssay AID232 (DTP/NCI, 2004).
The list does not hold the whole screen: it is rich in T/C values a quarter to a half above the control, in often repeated tests (any T/C) and in doses without a T/C. Other doses and runs of a compound stand elsewhere. T/C gives the treated animals as a percentage of the vehicle group. Some entries give survivors of the animals treated and no T/C: the source holds a T/C of zero for them, seemingly a mark for toxic or unscored doses. Some survivor counts are full or nearly so, which does not show that the dose was tolerated: survival well below the control is almost never listed, so the zero probably covers shortened survival too. Counts of survivors are from the toxicity check (mostly the fifth day) where no day follows; animals may have died later. Schedule codes are those of the source, taken here to give the interval after Q, in days (D) or hours (H), and the number of doses after X. Some entries were tested several times; the results are listed from low to high. Where survival is the endpoint, the PubChem record calls one and a half times the control and up active, and a quarter to a half above the control has no call in these data; cut-offs in other NCI protocols can differ. Additions like (4×) give the number of equal values in this list. Some T/C values are followed by the survivors on the day toxicity was checked, most often the fifth; where none is given, no animal had died by that day.

Test system: Gardner 6C3HED lymphosarcoma ip, C3AKF1 mice, survival T/C
Assay: NCI In Vivo Anticancer Drug Screen. Data for tumor model Lymphosarcoma Gardner 6C3HED (intraperitoneal) in C3AKF1 (CHKRF1) mice
Details: T/C endpoint: survival time, mean or median, higher T/C = longer survival
Method: The antitumor activity of compounds was measured in mice bearing transplantable tumors. Survival or tumor size were measured and the results are expressed as the measurement made in the treated group (T) divided by the measurement made in the vehicle treated control group (C). The tumor model used in this assay is Lymphosarcoma Gardner 6C3HED (intraperitoneal) in C3AKF1 (CHKRF1) mice

[1] = dose: 40.0 mg/kg/injection, schedule: Q01DX010 (ip), vehicle: saline
[2] = dose: 100.0 mg/kg/injection, schedule: Q01DX010 (sc), vehicle: steroid suspending solution
[3] = dose: 20.0 mg/kg/injection, schedule: Q01DX010 (ip), vehicle: saline
[4] = dose: 125.0 mg/kg/injection, schedule: Q01DX010 (ip), vehicle: saline
[5] = dose: 250.0 mg/kg/injection, schedule: Q01DX010 (ip), vehicle: saline
[6] = dose: 4.0 mg/kg/injection, schedule: Q01DX010 (ip), vehicle: saline
[7] = dose: 25.0 mg/kg/injection, schedule: Q01DX010 (ip), vehicle: saline
[8] = dose: 50.0 mg/kg/injection, schedule: Q01DX010 (ip), vehicle: saline
[9] = dose: 2.0 mg/kg/injection, schedule: Q01DX010 (ip), vehicle: saline
[10] = dose: 75.0 mg/kg/injection, schedule: Q01DX010 (ip), vehicle: saline
[11] = dose: 200.0 mg/kg/injection, schedule: Q01DX010 (ip), vehicle: saline
[12] = dose: 12.0 mg/kg/injection, schedule: Q01DX010 (ip), vehicle: saline
[13] = dose: 200.0 mg/kg/injection, schedule: Q01DX010 (sc), vehicle: steroid suspending solution

In the case of `O=C(Nc1ccc(C2=NCCN2)cc1)c1ccc(C(=O)Nc2ccc(C3=NCCN3)cc2)c(Cl)c1`, the T/C (dose: 2.0 mg/kg/injection, schedule: Q01DX010 (ip), vehicle: other) is reported as 145 % of control.

For `CN(C)c1ccc(/C=C/c2ccnc3ccccc23)cc1`, the survivor count [1] was 6 of 6.

With `C[C@@H]1C[C@@H]([C@H](O)CC2CC(=O)NC(=O)C2)C(=O)[C@@H](C)C1` the survivor count [1] was 5 of 6 and 6 of 6.

In the case of `CC(=O)O[C@]1(C(C)=O)CC[C@H]2[C@@H]3C[C@H](C)C4=CC(=O)C=C[C@]4(C)[C@@]3(F)[C@@H](O)C[C@@]21C`, the survivor count [2] is reported as 6 of 6.

With `S=P(N1CCOCC1)(N1CC1)N1CC1` the T/C [3] was 133 % of control.

In the case of `CCCCNc1ncnc2c1cnn2C`, the survivor count [4] is reported as 2 of 6 and 4 of 6 and the survivor count [5] is reported as 0 of 6.

For `C=CC(CN1CC1)OC(C)=O` (stereo not drawn), the T/C [6] was 138 % of control, the T/C (dose: 8.0 mg/kg/injection, schedule: Q01DX010 (ip), vehicle: saline) was 130 % of control and the survivor count (dose: 16.0 mg/kg/injection, schedule: Q01DX010 (ip), vehicle: saline) was 5 of 6.

For `O=C(Nc1ccc(C2=NCCCN2)cc1)c1ccc(C(=O)Nc2ccc(C3=NCCCN3)cc2)cc1`, the survivor count (dose: 4.0 mg/kg/injection, schedule: Q01DX010 (ip), vehicle: other) was 5 of 6, the survivor count (dose: 8.0 mg/kg/injection, schedule: Q01DX010 (ip), vehicle: other) was 3 of 6 and 5 of 6 and the survivor count (dose: 16.0 mg/kg/injection, schedule: Q01DX010 (ip), vehicle: other) was 3 of 6 and 4 of 6.

With `N=[N+]=CC(=O)OCC(N)C(=O)O` (stereo not drawn) the T/C (dose: 3.13 mg/kg/injection, schedule: Q01DX010 (ip), vehicle: saline) was 130 and 135 % of control, the T/C (dose: 6.25 mg/kg/injection, schedule: Q01DX010 (ip), vehicle: saline) was 135 % of control and the survivor count [7] was 6 of 6.

With `CCOC(=O)NP(=O)(N1CC1(C)C)N1CC1(C)C` (stereo not drawn) the T/C [4] was 126 % of control and the T/C [5] was 130 % of control.

For `O=NN(CCCl)C(=O)NCCCl`, the T/C (dose: 12.5 mg/kg/injection, schedule: Q01DX010 (ip), vehicle: saline) was 130 and 133 % of control, the survivor count [7] was 6 of 6 and the survivor count [8] was 2 of 6 and 3 of 6.

`Clc1ncnc2nc[nH]c12` was tested, and the survivor count (dose: 15.0 mg/kg/injection, schedule: Q01DX010 (ip), vehicle: saline) was 6 of 6, the survivor count (dose: 30.0 mg/kg/injection, schedule: Q01DX010 (ip), vehicle: saline) was 6 of 6 and the survivor count (dose: 60.0 mg/kg/injection, schedule: Q01DX010 (ip), vehicle: saline) was 6 of 6.

In the case of `CCCNc1ncnc2[nH]ncc12`, the survivor count [7] is reported as 6 of 6.

With `S=P(N1CC1)(N1CC1)N1CC1` the T/C [6] was 145 % of control.

With `O=c1cnn(C2OC(CO)C(O)C2O)c(=O)[nH]1` (stereo not drawn) the survivor count (dose: 1600.0 mg/kg/injection, schedule: Q01DX010 (ip), vehicle: saline) was 6 of 6.

For `NC(=O)N(CCCl)N=O`, the T/C [9] was 127 and 137 % of control and the survivor count [6] was 6 of 6.

`Oc1cc(CN(CCCl)CCCl)c(O)cc1CN(CCCl)CCCl` was tested, and the T/C (dose: 0.63 mg/kg/injection, schedule: Q01DX010 (ip), vehicle: saline) was 129 % of control and the T/C (dose: 2.5 mg/kg/injection, schedule: Q01DX010 (ip), vehicle: saline) was 133 % of control.

In the case of `CS(=O)(=O)OCCN(CCOS(C)(=O)=O)c1ccc(N=O)cc1`, the T/C (dose: 0.5 mg/kg/injection, schedule: Q01DX010 (ip), vehicle: saline) is reported as 133 % of control, the survivor count [9] is reported as 6 of 6 and the survivor count [6] is reported as 6 of 6.

For `COS(C)(=O)=O`, the T/C [7] was 134 % of control.

In the case of `CS(=O)(=O)OCCCl`, the survivor count [10] is reported as 3 of 6.

With `O=C1C(NC(=O)C2CCCCC2)=C(N2CC2)C(=O)C(NC(=O)C2CCCCC2)=C1N1CC1` the T/C (dose: 100.0 mg/kg/injection, schedule: Q01DX010 (ip), vehicle: saline) was 126 % of control and the T/C [11] was 134 % of control.

In the case of `CCN(CC)CCNc1ccc(C)c2sc3ccccc3c(=O)c12`, the survivor count [7] is reported as 6 of 6, the T/C [8] is reported as 142 % of control and the survivor count [11] is reported as 6 of 6.

`CN(C)c1nc(N(C)C)nc(N(C)C)n1` was tested, and the survivor count (dose: 18.8 mg/kg/injection, schedule: Q01DX010 (ip), vehicle: saline) was 6 of 6, the survivor count (dose: 37.5 mg/kg/injection, schedule: Q01DX010 (ip), vehicle: saline) was 6 of 6 and the survivor count [10] was 6 of 6. For the same compound, the survivor count (dose: 150.0 mg/kg/injection, schedule: Q01DX010 (ip), vehicle: saline) was 6 of 6 and the survivor count (dose: 300.0 mg/kg/injection, schedule: Q01DX010 (ip), vehicle: saline) was 5 of 6.

With `C[n+]1c2ccccc2nc2c(N)cc(N)cc21` the T/C [12] was 127 % of control, the T/C (dose: 18.0 mg/kg/injection, schedule: Q01DX010 (ip), vehicle: saline) was 131 % of control [5 of 6 alive] and the T/C (dose: 27.0 mg/kg/injection, schedule: Q01DX010 (ip), vehicle: saline) was 131 % of control (2×). For the same compound, the T/C [1] was 131 % of control [5 of 6 alive].

For `CCOC(N)=O`, the survivor count [5] was 5 of 6 and 6 of 6, the survivor count (dose: 500.0 mg/kg/injection, schedule: Q01DX010 (ip), vehicle: saline) was 6 of 6 and the survivor count (dose: 1000.0 mg/kg/injection, schedule: Q01DX010 (ip), vehicle: saline) was 6 of 6.

With `Nc1ncnc2[nH]ncc12` the survivor count [12] was 6 of 6.

In the case of `S=c1nc[nH]c2nc[nH]c12`, the T/C (dose: 5.0 mg/kg/injection, schedule: Q01DX010 (ip), vehicle: alkali diluted with saline) is reported as 100, 108, 130 % of control (2×), the T/C (dose: 10.0 mg/kg/injection, schedule: Q01DX010 (ip), vehicle: alkali diluted with saline) is reported as 104, 108, 120, 165 % of control and the T/C (dose: 20.0 mg/kg/injection, schedule: Q01DX010 (ip), vehicle: alkali diluted with saline) is reported as 100, 112, 115, 130 % of control. For the same compound, the T/C (dose: 40.0 mg/kg/injection, schedule: Q01DX010 (ip), vehicle: alkali diluted with saline) was 100, 125, 130, 140 % of control and the T/C (dose: 80.0 mg/kg/injection, schedule: Q01DX010 (ip), vehicle: alkali diluted with saline) was 120, 129, 130, 160 % of control.

With `Cc1cc(N(CCCl)CCCl)ccc1N=Nc1ccccc1C(=O)O` the T/C (dose: 10.0 mg/kg/injection, schedule: Q01DX010 (ip), vehicle: saline) was 145 % of control, the T/C [3] was 145 % of control and the survivor count [1] was 6 of 6.

`Nc1nc(=S)c2[nH]cnc2[nH]1` was tested, and the T/C (dose: 1.25 mg/kg/injection, schedule: Q01DX010 (ip), vehicle: saline) was 135 % of control, the survivor count (dose: 2.5 mg/kg/injection, schedule: Q01DX010 (ip), vehicle: other) was 6 of 6 and the survivor count (dose: 5.0 mg/kg/injection, schedule: Q01DX010 (ip), vehicle: other) was 5 of 6. The survivor count (dose: 10.0 mg/kg/injection, schedule: Q01DX010 (ip), vehicle: other) was 6 of 6.

For `C[C@]12C=CC(=O)C=C1CC[C@@H]1[C@@H]2C(=O)C[C@@]2(C)[C@H]1CC[C@]2(O)C(=O)CO`, the T/C (dose: 12.5 mg/kg/injection, schedule: Q01DX010 (sc), vehicle: steroid suspending solution) was 108, 125, 130, 155 % of control, the T/C (dose: 25.0 mg/kg/injection, schedule: Q01DX010 (sc), vehicle: steroid suspending solution) was 105, 116, 125, 160 % of control and the T/C (dose: 50.0 mg/kg/injection, schedule: Q01DX010 (sc), vehicle: steroid suspending solution) was 110, 116, 125, 129 % of control. The T/C [2] was 95, 104, 108 % of control, the survivor count [2] was 6 of 6 and the T/C [13] was 100 % of control. For the same compound, the survivor count [13] was 4 of 6, 5 of 6, 6 of 6.
